Our source for the cell number change and AC50 values is PubChem BioAssay AID2685 (National Center for Advancing Translational Sciences (NCATS), 2010).

This test can be described thus: qHTS Assay for Lipid Storage Modulators in Drosophila S3 Cells.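 On cell number change: cells counted by Cell Tracker Red CMTPX staining in the red channel.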 To be noted: BODIPY lipid droplet fluorescence, 18-24 h; for cell number change: measured here: cell count max response, cells fed with added oleic acid. Put shortly: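 Drosophila S3 cells loaded with oleic acid (400 uM, as added) and compounds at several concentrations; lipid droplets imaged by 488-nm laser-scanning cytometry, 500–530 nm intensity and object ratio to cell channel. Percent activity normalized to 20 uM Triacsin C.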

[1] abbreviates: measured here: lipid fluorescence (Fed channel) AC50, cells fed with added oleic acid.
Setting [2] is: measured here: cell number channel AC50, cells fed with added oleic acid.

The other results are listed elsewhere or left out. Shown are side measurements of this screen, not its main read-out; they come without a call. Most of these compounds were active or inconclusive in the main read-out, so they are no random draw. The note in brackets gives the kind of curve behind each potency; many fits are weak.

Regarding `CC1(C)COC(/C=C/c2ccc([N+](=O)[O-])cc2)=N1`, the cell number change is -12.8%. Regarding `Cn1nc(C(=O)OCC(=O)NC2CCS(=O)(=O)C2)c2ccccc2c1=O` (centres undefined), under setting [1], the AC50 is 6.51 µM [falling, single point]. Regarding `CC(C)c1ccc(CCNC(=O)c2cccc(S(=O)(=O)N3CCN(C)CC3)c2)cc1`, the cell number change worked out at 1.76%. Moreover, the AC50 under setting [1] is 29.1 µM [falling, single point]. For `CCOC(=O)Cn1c(CN(Cc2ccccc2)Cc2ccccc2)nc2c1c(=O)n(C)c(=O)n2C`, the cell number change came to 49.4%. Moreover, under setting [2], the AC50 is 29.1 µM [rising, single point]. For the same compound, the AC50 under setting [1] is 4.11 µM [rising, single point]. Regarding `Cc1ccc(C(=O)NNC(=O)c2cccs2)cc1`, the cell number change was -12.3%. Besides, the AC50 under setting [1] is 0.103 µM [falling, partial curve, poor fit]. In the case of `CC(=O)Nc1ccc(NC(=O)C(C)Oc2ccccc2C(=O)NCc2ccccc2)cc1` (centres undefined), the cell number change was -3.85%. Further, under setting [1], the AC50 was 0.58 µM [falling, full curve, poor fit].

As to `COc1ccccc1OCC(O)CN1C(=O)NC(C)(C)C1=O` (centres undefined), the cell number change turned out to be 10.9%. Besides, the AC50 under setting [1] was 2.06 µM [rising, single point]. In the case of `O=C(Nc1ccc2c(c1)OCO2)c1ccc(Cl)s1`, the cell number change was determined as 91.7%. The AC50 under setting [2] was 3.26 µM [rising, full curve]. Moreover, the AC50 under setting [1] was 1.64 µM [rising, full curve]. For the compound `C[C@]12CC[C@H]3C(=CCc4cc(O)ccc43)[C@@H]1CCC2=O`, the cell number change is -30.8%. Under setting [1], the AC50 is 0.291 µM [falling, full curve, poor fit]. As for `Cc1cc(Br)cc(C)c1NC(=O)c1ccccc1[N+](=O)[O-]`, the cell number change came out at 23.3%. In addition, the AC50 under setting [2] was 6.51 µM [rising, single point].

Regarding `COc1ccccc1N1C(=O)c2ccc(C(=O)Nc3ccc(C(=O)O)cc3)cc2C1=O`, the cell number change turned out to be 23.4%. For the same compound, the AC50 under setting [2] is 2.31 µM [rising, full curve, poor fit]. On to `Cc1ccc(-n2nc(C)c3c(C)c(CCC(=O)NCCCOC(C)C)c(C)nc32)cc1`, for which the cell number change was 17.6%.

As to `CCO/C(C)=C1/SC(=S)NC1=O`, the cell number change was -26.1%. Also, the AC50 under setting [1] is 0.0058 µM [falling, full curve, poor fit]. `CN(C)S(=O)(=O)c1ccc(C(=O)NCCSc2ccccc2)cc1`: the AC50 under setting [2] was 0.461 µM [rising, partial curve, poor fit]. Consider `CCOc1ccc(S(=O)(=O)NCCC(=O)Nc2ccncc2)cc1`, for which the cell number change was found to be 43.3%. Also, the AC50 under setting [2] is 6.51 µM [rising, partial curve]. The AC50 under setting [1] was 9.2 µM [rising, partial curve]. On to `O=C(CSc1nncn1-c1ccccc1F)NC1CCCCC1`, for which the cell number change is -4.39%. In addition, the AC50 under setting [1] was 5.8 µM [rising, partial curve]. Take `CCOC(=O)c1cc(=O)n(Cc2ccccc2C)c2ccccc12`: the AC50 reads like this: under setting [2], 4.11 µM [rising, single point]; under setting [1], 5.8 µM [rising, single point]. Take `CC(=O)c1ccc(N2CCN(C(=O)c3cc(-c4ccncc4)nc4ccc(Cl)cc34)CC2)cc1`: the cell number change turned out to be 2.46%. `Cn1cc(CN2CCCC(C(=O)Nc3cccc(-c4cc5ccccc5[nH]4)c3)C2)cn1` (centres undefined): the cell number change amounted to 12.1%. Besides, the AC50 under setting [2] was 0.58 µM [rising, full curve, poor fit].

As for `Nc1cccc2c1C(=O)N(C(=O)c1ccc(Cl)c(S(=O)(=O)N3CCCCCC3)c1)C2=O`, the AC50 under setting [1] was 6.51 µM [falling, partial curve, poor fit]. As to `O=C(Nc1cccnc1)C(Cc1ccccc1)n1cccc1` (centres undefined), the cell number change was 8.05%. The AC50 under setting [1] is 1.16 µM [rising, single point].

With `COc1cccc(OCC(O)CN2CCN(c3ccccn3)CC2)c1` (centres undefined), the cell number change was 8.1%. Also, the AC50 under setting [1] is 4.61 µM [rising, full curve, poor fit]. For `N#Cc1c(Cl)cccc1-n1ccnc1`, the cell number change was -11%. Also, the AC50 under setting [1] is 20.6 µM [falling, partial curve].

Take `CN(C)c1ccc(-c2cc([C@H]3[C@@H]4C=CCC[C@@]4(C)C(=O)N3Cc3ccccc3)ccc2F)cc1`: the cell number change was -17.3%. Besides, the AC50 under setting [1] is 23.1 µM [falling, single point]. In the case of `O=C(COC(=O)c1ccc(Cl)nc1)Nc1ccc(Cl)cc1`, the cell number change was -0.402%. As to `COC(CNC(=O)C(=O)Nc1cc2c3c(c1)CC(=O)N3CCC2)OC`, under setting [1], the AC50 is 23.1 µM [rising, single point]. For the compound `CC1(C)C(=O)N(c2ccccc2F)C(=O)c2ccccc21`, the cell number change turned out to be 11.3%. `Cc1nn(-c2ccccc2)c(Cl)c1/C=C1\SC(=S)N(C)C1=O`: the cell number change was 16.2%. In addition, under setting [1], the AC50 is 0.82 µM [rising, full curve]. For the compound `CCCCN(CC)CCNC(=O)c1cc2c(-c3ccccc3F)nn(C)c2s1`, the cell number change came to 90.3%. The AC50 under setting [2] was 20.6 µM [rising, single point].

Take `CC(=O)Nc1ccc(S(=O)(=O)N2CCN=C2SCc2ccc(F)cc2)cc1`: the cell number change is -39%. Moreover, the AC50 under setting [2] is 25.9 µM [falling, partial curve, poor fit]. As to `Cn1ccnc1SCC(=O)Nc1cccc(S(=O)(=O)N2CCCCCC2)c1`, under setting [1], the AC50 was 0.092 µM [rising, full curve, poor fit]. Regarding `CCC/C=N/NC(=O)c1ccc(F)cc1`, the cell number change was -1.76%. Also, the AC50 under setting [2] was 0.231 µM [falling, single point]. On to `O=Cc1s/c(=N\S(=O)(=O)c2ccccc2)n(CCCCl)c1Cl`, for which the cell number change is -47.2%. In addition, under setting [2], the AC50 is 32.6 µM [falling, single point]. The AC50 under setting [1] was 29.1 µM [falling, single point]. With `COCCCNC(=O)/C(C#N)=C/c1c(N2CCN(C)CC2)nc2c(C)cccn2c1=O`, the cell number change was determined as 4.26%. Consider `N#C/C(=C\c1ccc(C(=O)O)cc1)S(=O)(=O)c1cc(Br)ccc1Br`, for which the cell number change is -38%. The AC50 under setting [2] is 18.4 µM [falling, single point]. For the same compound, the AC50 under setting [1] is 29.1 µM [falling, single point]. Consider `COc1ccc(-c2nc(-c3ccccn3)ncc2S(C)(=O)=O)cc1`, for which the cell number change turned out to be 8.47%.

On to `O=C(NC(=S)Nc1ccc(N2CCOCC2)cc1)c1cccc(Cl)c1`, for which the cell number change is 1.9%. In addition, under setting [1], the AC50 was 6.51 µM [rising, single point]. `COc1ccc(Br)cc1/C=N/NC(=O)c1cc(OC)c(OC)c(OC)c1`: the cell number change stood at 28.4%. Besides, the AC50 under setting [2] was 4.11 µM [rising, full curve, poor fit]. Further, under setting [1], the AC50 is 5.8 µM [rising, full curve].

As to `O=[N+]([O-])c1ccc(N=Cc2c(O)ccc3ccccc23)cc1`, the cell number change was -6.25%. As for `COc1ccc(Br)cc1/C=N/NC(=O)c1cccnc1`, the cell number change is -14.7%. Also, the AC50 under setting [1] is 6.51 µM [falling, single point]. Turning to `O=c1oc(-c2ccc(F)cc2)nc2ccsc12`, the cell number change was -5.06%. The AC50 under setting [1] is 20.6 µM [falling, partial curve].

On to `Cc1ccc(S(=O)(=O)CCC(=O)Nc2cccc(S(=O)(=O)N3CCCCCC3)c2)cc1`, for which the cell number change is -4.85%. In addition, under setting [1], the AC50 was 0.0651 µM [rising, full curve, poor fit]. For `COc1cnn(-c2ccc(C)cc2)c(=O)c1Br`, the cell number change is -36.9%. Moreover, the AC50 under setting [2] is 11.6 µM [falling, single point]. Consider `COc1cc(S(=O)(=O)n2ccnc2)ccc1Br`, for which the cell number change is -29.8%. The AC50 under setting [1] was 11.6 µM [falling, partial curve, poor fit]. With `O=C1c2ccccc2C(=O)N1CCC#Cc1ccc2cc(CCO)oc(=O)c2c1`, the cell number change was -34.9%. Besides, the AC50 under setting [2] is 29.1 µM [falling, single point]. Also, the AC50 under setting [1] is 0.00461 µM [rising, full curve, poor fit]. Take `Cc1nn(-c2ccccc2)c(=O)c2ccccc12`: the cell number change is -28.7%. Also, the AC50 under setting [2] was 0.103 µM [rising, full curve, poor fit]. Take `CCOC(=O)N1CCN(Cc2nc3c(c(=O)[nH]c(=O)n3C)n2Cc2cc(C)ccc2C)CC1`: the AC50 is, setting by setting: under setting [2], 1.84 µM [rising, partial curve]; under setting [1], 0.461 µM [rising, partial curve, poor fit]. Take `CCOc1ccc2nc(Cl)c(C3CC(c4ccccc4)=NN3C(=O)c3ccco3)cc2c1` (centres undefined): the cell number change was -83.3%. Also, the AC50 under setting [2] is 0.146 µM [falling, full curve].

With `O=C(Cn1cnc2sc(-c3ccccc3)cc2c1=O)NCCc1ccccc1`, the cell number change amounted to 87.5%. Moreover, the AC50 under setting [2] was 23.1 µM [rising, single point]. For `O=C(NCCCN1CCOCC1)c1ccc2c(=O)n(-c3ccc(F)c(Cl)c3)c(=S)[nH]c2c1`, the cell number change came to 25%. In addition, under setting [1], the AC50 is 20.6 µM [rising, partial curve, poor fit].

In the case of `CCN(c1cccc(C)c1)S(=O)(=O)c1ccc2c(c1)NC(=O)CCS2`, the cell number change came out at 4.2%. In addition, the AC50 under setting [1] is 29.1 µM [falling, single point]. As for `CO[C@H]1C=CO[C@@]2(C)Oc3c(C)c(O)c4c(O)c(c(C=NN5CCN(C6CCCC6)CC5)c(O)c4c3C2=O)NC(=O)C(C)=CC=C[C@H](C)[C@H](O)[C@@H](C)[C@@H](O)[C@@H](C)[C@H](OC(C)=O)[C@@H]1C`, the cell number change is -37%. Besides, under setting [2], the AC50 was 29.1 µM [falling, single point]. Moreover, the AC50 under setting [1] was 7.31 µM [falling, single point].

Regarding `COc1ccc(CNC(=O)Nc2cccc3ccccc23)cc1`, the cell number change was -2.92%. Under setting [1], the AC50 was 1.46 µM [rising, partial curve, poor fit]. As for `Cc1ccc(-c2cccc(CN3CCN(C4CCN(C(C)C)CC4)C(CCO)C3)c2)o1` (centres undefined), the cell number change was -7.76%. Moreover, the AC50 under setting [1] is 1.03 µM [falling, full curve]. Turning to `COc1cccc(CN2CCCCC2C(=O)O)c1` (centres undefined), the AC50 by setting is: under setting [2], 0.326 µM [falling, full curve]; under setting [1], 4.61 µM [falling, partial curve, poor fit].

`CCCCN1C(=O)C(=O)N(CC(=O)c2ccc[nH]2)C1=O`: the cell number change came out at 11.1%. Further, under setting [1], the AC50 is 1.03 µM [falling, partial curve].

In the case of `CSCCC(NC(=O)CCC(=O)OCC(=O)[C@@]1(O)CCC2[C@@H]3CCC4=CC(=O)C=C[C@]4(C)C3[C@@H](O)C[C@@]21C)C(=O)O` (some centres undefined), the cell number change is -16.3%. For the compound `O=C(c1ccc(CN2CCOCC2)cc1)N1CCN(c2ccccc2F)CC1`, under setting [1], the AC50 is 18.4 µM [rising, partial curve].
